These are yes or no findings as the source states them, for the method shown. Binding seen in cells or lysates may run through a third protein. Some results given as binding are weak or reduced against the parent protein; the word gives no strength.
Key:
eGFP-SLX4 WT (human) [1] = target: eGFP-SLX4 WT (human) (UniProt Q8IY92); assay: co-IP; GFP-Trap agarose from benzonase-treated whole-cell lysates of transfected HEK293TN cells (nocodazole 100 ng/ml 18 h; in some panels asynchronous cells or 7 µM RO-3306 for 30 min); 200 mM NaCl, 0.2% Igepal, pH 7.5, 4 °C; western blot
eGFP-TOPBP1 WT (human) [2] = target: eGFP-TOPBP1 WT (human) (UniProt Q92547); assay: as above
eGFP-SLX4 WT (human) [3] = target: eGFP-SLX4 WT (human) (UniProt Q8IY92); assay: co-IP; GFP-Trap co-IP from the chromatin fraction of transfected HEK293TN cells treated with 100 ng/ml nocodazole for 18 h; western blot
[4] = target: eGFP-TOPBP1 1 + 2 (K155E + K250E) (human) (UniProt Q92547); assay: as above
eGFP-TOPBP1 WT (human) [5] = target: eGFP-TOPBP1 WT (human) (UniProt Q92547); assay: as above
eGFP-SLX4 T1260A (human) = eGFP-SLX4 T1260A (human) (UniProt Q8IY92); assay: as above

Amino acid sequences for entries named in this document (tags omitted). A change or cut given only in a name is not applied to a line headed by its entry.
UniProt Q8IY92: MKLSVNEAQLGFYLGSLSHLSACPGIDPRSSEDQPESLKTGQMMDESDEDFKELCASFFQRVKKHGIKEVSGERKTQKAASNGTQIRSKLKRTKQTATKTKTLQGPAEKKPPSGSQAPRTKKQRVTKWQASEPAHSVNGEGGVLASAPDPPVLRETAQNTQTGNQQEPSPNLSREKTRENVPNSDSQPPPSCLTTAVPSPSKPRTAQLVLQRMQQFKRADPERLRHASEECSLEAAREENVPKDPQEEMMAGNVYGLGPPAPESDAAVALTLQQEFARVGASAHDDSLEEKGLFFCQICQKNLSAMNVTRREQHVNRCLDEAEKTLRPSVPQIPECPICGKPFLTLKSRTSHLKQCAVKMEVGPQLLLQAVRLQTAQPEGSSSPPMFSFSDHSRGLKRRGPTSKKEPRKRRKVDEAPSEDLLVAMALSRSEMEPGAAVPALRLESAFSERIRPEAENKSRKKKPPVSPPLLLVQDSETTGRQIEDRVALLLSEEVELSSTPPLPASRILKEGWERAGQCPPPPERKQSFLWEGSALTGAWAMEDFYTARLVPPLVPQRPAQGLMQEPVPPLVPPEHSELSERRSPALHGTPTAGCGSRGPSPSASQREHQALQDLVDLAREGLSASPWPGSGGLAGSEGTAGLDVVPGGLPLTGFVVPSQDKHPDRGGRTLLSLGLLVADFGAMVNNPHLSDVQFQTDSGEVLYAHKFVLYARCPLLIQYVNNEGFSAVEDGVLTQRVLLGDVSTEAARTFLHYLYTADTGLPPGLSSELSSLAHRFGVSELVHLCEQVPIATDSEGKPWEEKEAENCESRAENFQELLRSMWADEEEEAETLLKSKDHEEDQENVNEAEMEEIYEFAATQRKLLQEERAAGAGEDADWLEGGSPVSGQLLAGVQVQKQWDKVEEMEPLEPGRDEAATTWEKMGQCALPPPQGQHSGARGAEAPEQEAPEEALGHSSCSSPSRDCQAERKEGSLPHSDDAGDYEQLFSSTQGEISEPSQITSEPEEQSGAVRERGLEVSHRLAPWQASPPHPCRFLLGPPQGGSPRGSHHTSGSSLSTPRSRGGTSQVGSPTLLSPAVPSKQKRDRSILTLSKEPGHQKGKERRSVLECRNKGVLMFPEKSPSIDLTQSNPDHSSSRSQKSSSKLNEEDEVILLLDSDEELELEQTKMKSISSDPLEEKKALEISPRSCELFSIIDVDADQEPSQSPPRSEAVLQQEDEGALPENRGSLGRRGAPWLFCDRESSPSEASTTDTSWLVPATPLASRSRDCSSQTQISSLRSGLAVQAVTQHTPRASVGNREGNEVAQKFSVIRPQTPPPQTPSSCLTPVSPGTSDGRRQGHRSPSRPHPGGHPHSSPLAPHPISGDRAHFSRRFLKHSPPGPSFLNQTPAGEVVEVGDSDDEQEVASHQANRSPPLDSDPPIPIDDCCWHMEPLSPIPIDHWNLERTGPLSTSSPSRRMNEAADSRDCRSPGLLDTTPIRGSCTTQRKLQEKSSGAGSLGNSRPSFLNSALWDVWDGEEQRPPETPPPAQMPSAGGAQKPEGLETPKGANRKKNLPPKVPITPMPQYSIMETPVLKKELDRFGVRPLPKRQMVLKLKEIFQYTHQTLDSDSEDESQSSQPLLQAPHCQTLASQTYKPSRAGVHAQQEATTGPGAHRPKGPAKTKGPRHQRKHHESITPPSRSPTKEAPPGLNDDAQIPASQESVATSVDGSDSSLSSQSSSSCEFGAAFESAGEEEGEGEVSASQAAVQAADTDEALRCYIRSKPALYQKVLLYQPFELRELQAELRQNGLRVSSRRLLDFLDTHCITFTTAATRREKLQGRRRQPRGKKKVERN
UniProt Q92547: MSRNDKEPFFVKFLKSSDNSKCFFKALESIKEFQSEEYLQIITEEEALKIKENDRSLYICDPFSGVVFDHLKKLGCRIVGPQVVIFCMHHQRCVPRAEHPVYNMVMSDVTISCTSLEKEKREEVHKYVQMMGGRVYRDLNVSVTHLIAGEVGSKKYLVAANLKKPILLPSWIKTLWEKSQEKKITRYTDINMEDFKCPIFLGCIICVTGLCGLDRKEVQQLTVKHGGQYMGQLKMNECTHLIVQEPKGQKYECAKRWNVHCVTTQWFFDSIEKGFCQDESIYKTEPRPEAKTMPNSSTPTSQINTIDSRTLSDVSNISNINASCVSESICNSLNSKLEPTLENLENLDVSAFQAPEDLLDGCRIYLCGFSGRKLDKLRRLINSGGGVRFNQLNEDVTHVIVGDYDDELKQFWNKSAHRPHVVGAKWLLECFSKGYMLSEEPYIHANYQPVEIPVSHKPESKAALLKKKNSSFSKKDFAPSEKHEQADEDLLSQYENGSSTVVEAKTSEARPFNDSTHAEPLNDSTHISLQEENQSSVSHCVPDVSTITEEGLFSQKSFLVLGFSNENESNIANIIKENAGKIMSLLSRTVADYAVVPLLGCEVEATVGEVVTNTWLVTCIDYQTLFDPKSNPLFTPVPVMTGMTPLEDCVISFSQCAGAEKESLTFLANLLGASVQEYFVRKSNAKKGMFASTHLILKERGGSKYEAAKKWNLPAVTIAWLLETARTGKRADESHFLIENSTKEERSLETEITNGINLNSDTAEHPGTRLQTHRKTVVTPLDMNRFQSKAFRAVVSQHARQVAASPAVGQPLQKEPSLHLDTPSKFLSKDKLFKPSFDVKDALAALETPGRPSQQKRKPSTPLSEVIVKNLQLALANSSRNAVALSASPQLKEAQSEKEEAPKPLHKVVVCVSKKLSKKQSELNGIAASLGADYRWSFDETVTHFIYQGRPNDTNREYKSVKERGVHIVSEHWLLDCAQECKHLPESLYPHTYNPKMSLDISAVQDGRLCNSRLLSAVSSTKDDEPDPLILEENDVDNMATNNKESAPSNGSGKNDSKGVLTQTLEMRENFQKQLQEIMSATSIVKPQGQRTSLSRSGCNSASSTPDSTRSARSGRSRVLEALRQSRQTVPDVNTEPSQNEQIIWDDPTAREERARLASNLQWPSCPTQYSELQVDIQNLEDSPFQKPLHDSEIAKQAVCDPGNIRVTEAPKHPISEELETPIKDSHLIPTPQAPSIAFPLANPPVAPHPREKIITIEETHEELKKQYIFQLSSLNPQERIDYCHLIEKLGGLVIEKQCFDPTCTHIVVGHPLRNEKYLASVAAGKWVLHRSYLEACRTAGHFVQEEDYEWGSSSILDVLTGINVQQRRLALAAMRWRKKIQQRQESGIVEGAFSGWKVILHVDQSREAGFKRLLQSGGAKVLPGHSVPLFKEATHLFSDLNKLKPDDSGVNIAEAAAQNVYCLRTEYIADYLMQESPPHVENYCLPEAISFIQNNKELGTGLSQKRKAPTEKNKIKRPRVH

Measured: binding

B1: MUS81 (endogenous) (protein, UniProt Q96NY9 1-551)
chain: MAAPVRLGRKRPLPACPNPLFVRWLTEWRDEATRSRRRTRFVFQKALRSLRRYPLPLRSGKEAKILQHFGDGLCRMLDERLQRHRTSGGDHAPDSPSGENSPAPQGRLAEVQDSSMPVPAQPKAGGSGSYWPARHSGARVILLVLYREHLNPNGHHFLTKEELLQRCAQKSPRVAPGSARPWPALRSLLHRNLVLRTHQPARYSLTPEGLELAQKLAESEGLSLLNVGIGPKEPPGEETAVPGAASAELASEAGVQQQPLELRPGEYRVLLCVDIGETRGGGHRPELLRELQRLHVTHTVRKLHVGDFVWVAQETNPRDPANPGELVLDHIVERKRLDDLCSSIIDGRFREQKFRLKRCGLERRVYLVEEHGSVHNLSLPESTLLQAVTNTQVIDGFFVKRTADIKESAAYLALLTRGLQRLYQGHTLRSRPWGTPGNPESGAMTSPNPLCSLLTFSDFNAGAIKNKAQSVREVFARQLMQVRGVSGEKAAALVDRYSTPASLLAAYDACATPKEQETLLSTIKCGRLQRNLGPALSRTLSQLYCSYGPLT
binds: all assays above

B2: ERCC1 (endogenous) (protein, UniProt P07992 1-297)
chain: MDPGKDKEGVPQPSGPPARKKFVIPLDEDEVPPGVAKPLFRSTQSLPTVDTSAQAAPQTYAEYAISQPLEGAGATCPTGSEPLAGETPNQALKPGAKSNSIIVSPRQRGNPVLKFVRNVPWEFGDVIPDYVLGQSTCALFLSLRYHNLHPDYIHGRLQSLGKNFALRVLLVQVDVKDPQQALKELAKMCILADCTLILAWSPEEAGRYLETYKAYEQKPADLLMEKLEQDFVSRVTECLTTVKSVNKTDSQTLLTTFGSLEQLIAASREDLALCPGLGPQKARRLFDVLHEPFLKVP
binds: eGFP-SLX4 WT (human) [1] | eGFP-TOPBP1 WT (human) [2] | [4] | eGFP-TOPBP1 WT (human) [5]

B3: TOP3A (endogenous) (protein, UniProt Q13472 1-1001)
chain: MIFPVARYALRWLRRPEDRAFSRAAMEMALRGVRKVLCVAEKNDAAKGIADLLSNGRMRRREGLSKFNKIYEFDYHLYGQNVTMVMTSVSGHLLAHDFQMQFRKWQSCNPLVLFEAEIEKYCPENFVDIKKTLERETRQCQALVIWTDCDREGENIGFEIIHVCKAVKPNLQVLRARFSEITPHAVRTACENLTEPDQRVSDAVDVRQELDLRIGAAFTRFQTLRLQRIFPEVLAEQLISYGSCQFPTLGFVVERFKAIQAFVPEIFHRIKVTHDHKDGIVEFNWKRHRLFNHTACLVLYQLCVEDPMATVVEVRSKPKSKWRPQALDTVELEKLASRKLRINAKETMRIAEKLYTQGYISYPRTETNIFPRDLNLTVLVEQQTPDPRWGAFAQSILERGGPTPRNGNKSDQAHPPIHPTKYTNNLQGDEQRLYEFIVRHFLACCSQDAQGQETTVEIDIAQERFVAHGLMILARNYLDVYPYDHWSDKILPVYEQGSHFQPSTVEMVDGETSPPKLLTEADLIALMEKHGIGTDATHAEHIETIKARMYVGLTPDKRFLPGHLGMGLVEGYDSMGYEMSKPDLRAELEADLKLICDGKKDKFVVLRQQVQKYKQVFIEAVAKAKKLDEALAQYFGNGTELAQQEDIYPAMPEPIRKCPQCNKDMVLKTKKNGGFYLSCMGFPECRSAVWLPDSVLEASRDSSVCPVCQPHPVYRLKLKFKRGSLPPTMPLEFVCCIGGCDDTLREILDLRFSGGPPRASQPSGRLQANQSLNRMDNSQHPQPADSRQTGSSKALAQTLPPPTAAGESNSVTCNCGQEAVLLTVRKEGPNRGRQFFKCNGGSCNFFLWADSPNPGAGGPPALAYRPLGASLGCPPGPGIHLGGFGNPGDGSGSGTSCLCSQPSVTRTVQKDGPNKGRQFHTCAKPREQQCGFFQWVDENTAPGTSGAPSWTGDRGRTLESEARSKRPRASSSDMGSTAKKPRKCSLCHQPGHTRPFCPQNR
binds: eGFP-TOPBP1 WT (human) [2]
